Results on 93 compounds are retold here after PubChem BioAssay AID493027 (The Scripps Research Institute Molecular Screening Center, 2011).

Protein sequences, listed by entry. Tags and fused reporters are not part of them. Lines headed by an entry give the natural chain unless they say otherwise; changes in a name come on top.
UniProt O60240: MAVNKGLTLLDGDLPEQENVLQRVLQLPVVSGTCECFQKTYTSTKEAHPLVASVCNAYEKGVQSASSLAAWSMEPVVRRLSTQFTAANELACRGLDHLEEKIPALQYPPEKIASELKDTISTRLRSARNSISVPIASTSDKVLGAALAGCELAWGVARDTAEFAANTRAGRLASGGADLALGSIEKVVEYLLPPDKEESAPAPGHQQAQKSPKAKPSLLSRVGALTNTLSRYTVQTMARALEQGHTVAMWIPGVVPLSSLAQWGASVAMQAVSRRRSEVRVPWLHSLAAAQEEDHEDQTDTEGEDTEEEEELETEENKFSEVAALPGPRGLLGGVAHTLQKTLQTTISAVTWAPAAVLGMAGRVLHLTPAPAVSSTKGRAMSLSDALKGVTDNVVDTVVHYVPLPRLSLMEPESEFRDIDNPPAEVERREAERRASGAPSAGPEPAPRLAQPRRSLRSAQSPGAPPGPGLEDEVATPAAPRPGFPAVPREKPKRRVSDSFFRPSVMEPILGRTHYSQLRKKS
UniProt Q8WTS1: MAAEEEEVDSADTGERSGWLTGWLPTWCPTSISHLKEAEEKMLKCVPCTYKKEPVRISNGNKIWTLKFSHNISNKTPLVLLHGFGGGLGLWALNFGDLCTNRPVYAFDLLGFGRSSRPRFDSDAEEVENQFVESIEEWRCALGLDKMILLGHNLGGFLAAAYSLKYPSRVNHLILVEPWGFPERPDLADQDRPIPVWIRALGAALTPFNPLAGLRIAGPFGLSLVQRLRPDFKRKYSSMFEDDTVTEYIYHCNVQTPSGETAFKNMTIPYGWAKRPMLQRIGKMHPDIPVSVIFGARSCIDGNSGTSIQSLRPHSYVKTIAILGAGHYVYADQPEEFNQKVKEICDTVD

Each structure is given as a SMILES string. Among all 2,000 compounds or so, about 45 (2%) were called active.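 The calls were made as follows: active = inhibition above the screen-wide mean inhibition plus 3 SD (cut at about 44% in these data); inactive = the rest.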 Some of the results follow.

Usually inhibition stands for the change of the read-out against control, counted positive when it falls.

For the assay, the target named is Perilipin-1 (Homo sapiens) + 1-acylglycerol-3-phosphate O-acyltransferase ABHD5 (Homo sapiens) (UniProt O60240+Q8WTS1). The experiment in a line: ABHD5-PLIN1 interaction inhibitors, pilot screen, cell lysate, split luciferase complementation, luminescence, NIH validation set (AID 493027).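 Also: 0% = DMSO wells with the 100% control not disclosed.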 Conditions: split G. princeps luciferase complementation, 4 h; at 7.9 µM, active compounds read high.
In the case of `Nc1cc(-c2ccncc2)c[nH]c1=O`, the inhibition is active: 49%. `O=C(CN1C(=O)C2CCc3[nH]c4ccccc4c3C2C1=O)N1CCCC1` (stereo not drawn): the inhibition was inactive: -6.03%.

As for `CCOC(=O)c1cc2c(nc1N)CC(C)(CC)OC2` (stereo not drawn), the inhibition is inactive: -4.67%.

On to `OC(CCN1CCCCC1)(c1ccccc1)C1CCCCC1` (stereo not drawn), for which the inhibition was inactive: -6.29%.

In the case of `COc1ccc2c(c1)CC[C@@H]1[C@@H]2CC[C@]2(C)C(=O)CC[C@@H]12`, the inhibition is inactive: -10.8%. Turning to `O=C1OC(=O)C2C1[C@@H]1CC[C@H]2O1` (stereo partly drawn), the inhibition was inactive: 0.42%. With `CCNC(=O)C(Cc1ccccc1)NC(=O)OCc1ccccc1` (stereo not drawn), the inhibition is inactive: -7.63%. With `COc1ccc2c(CCNC(=O)c3ccc([N+](=O)[O-])cc3)c[nH]c2c1`, the inhibition is inactive: -15.7%. Then `Cc1cccc(Oc2coc3cc(OC(=O)c4cncc(Br)c4)ccc3c2=O)c1`, with inactive: 8.8%; and `CC[N+]1(CC)CC2=Cc3ccccc3CC2C1` (stereo not drawn), with inactive: -4.04%. The result for `C=C1C2(C(=O)Nc3ccc(SC(F)F)cc3)CCC(C2)C1(C)C` (stereo not drawn) reads inactive: -4.78%; that for `COc1ccccc1Oc1c(C)oc2c(CN3CCN(CCO)CC3)c(O)ccc2c1=O`, inactive: 2.85%; that for `COc1ccccc1N=CC1=C(O)CC(c2ccccc2)CC1=O` (stereo not drawn), inactive: 6.74%. In the case of `COc1ccc(CNC(=O)C2CCCN2C)cc1OC` (stereo not drawn), the inhibition was inactive: -5.21%. Consider `COc1ccc(CNC(=O)c2cc3c(=O)n4ccccc4nc3n(Cc3cccnc3)c2=N)cc1`, for which the inhibition was inactive: 7.05%. `OCCOCCN1CCN(C(c2ccccc2)c2ccc(Cl)cc2)CC1` (stereo not drawn): the inhibition was inactive: -3.65%. Then `C[C@]12CCC(=O)C[C@@H]1CC[C@@H]1[C@@H]2CC[C@]2(C)C=CC[C@@H]12`, with inactive: -11.7%; and `COc1ccc(OC)c(NC2=C(Cl)C(=O)N(Cc3ccccc3)C2=O)c1`, with inactive: 13.1%. Turning to `CCCC(=O)Nc1ccccc1NC(C)=O`, the inhibition was inactive: -6.46%. The result for `CCCCC(=O)O[C@]1(C(=O)CO)CC[C@H]2[C@@H]3CCC4=CC(=O)CC[C@]4(C)[C@H]3[C@@H](O)C[C@@]21C` reads inactive: 4.33%; that for `Cc1oc2c(C)c3oc(=O)c4c(c3cc2c1C)CCCC4`, inactive: -1.79%; that for `CCc1cccc2c3c([nH]c12)C(CC)(CC(=O)O)OCC3` (stereo not drawn), inactive: -14.7%. For the compound `CC(C)CCc1noc(CN2CCC(CCN3CCCC3=O)CC2)n1`, the inhibition is inactive: -6.17%. Consider `CN(C)CC/C=C1\c2ccccc2COc2ccccc21`, for which the inhibition was inactive: -3.55%. Regarding `COC(=O)c1cc(-c2ccc(C)o2)nc2ccccc12`, the inhibition was active: 78%. Consider `CC1(C)c2ccccc2N2CC(=O)NC21/C=C/c1ccco1` (stereo not drawn), for which the inhibition was active: 47.4%. Then `CC(C)NS(=O)(=O)c1ccc(OCC(=O)Nc2cccc(F)c2)cc1`, with inactive: -1.78%.

Turning to `CCOC(=O)C1(Cc2cccc(Cl)c2)CCCN(C2CCN(C(C)=O)CC2)C1` (stereo not drawn), the inhibition is inactive: -7.42%. With `O=C(Nc1ccc(F)c([N+](=O)[O-])c1)c1ccc2c(c1)OCCO2`, the inhibition is inactive: -18.4%. For `COC(=O)c1ccc(OCCCCN2CC(C)OC(C)C2)cc1` (stereo not drawn), the inhibition is inactive: -0.75%. In the case of `Cc1ccc2c(c1)C1OCCC1C1N2C(=O)C2C(C(=O)O)C3C=CC21O3` (stereo not drawn), the inhibition is inactive: -9.48%. The result for `CC(C)=CCC/C(C)=C/CC/C(C)=C/CC/C(C)=C/CC1=C(C)C(=O)c2ccccc2C1=O` reads inactive: 18.4%; that for `CCC(=O)Nc1ccc(C(=O)N2CCN(C(=O)c3ccco3)CC2)cc1`, inactive: -11.5%. On to `C[C@]12CC[C@@H]3c4ccc(O)cc4CC[C@H]3[C@@H]1C[C@@H](O)[C@@H]2O[C@@H]1O[C@H](C(=O)O)[C@@H](O)[C@H](O)[C@H]1O`, for which the inhibition was inactive: 5.71%. With `Cc1ccc2c(c1)C1(C(=O)N2)N2CCCC2C(C(=O)c2ccc3ccccc3c2)C12C(=O)Nc1ccccc12` (stereo not drawn), the inhibition is inactive: -2.89%. With `CCOC(=O)[C@H](CCc1ccccc1)N[C@@H](C)C(=O)N1CCC[C@H]1C(=O)O`, the inhibition was inactive: -9.11%. Regarding `O=C(Nc1ccc(N2CCOCC2)cc1)c1ccc(-c2ccccc2[N+](=O)[O-])o1`, the inhibition was inactive: 2.24%. On to `C=C(C)c1nc2cc(OC)c(OC)cc2c(=O)o1`, for which the inhibition is inactive: -7.25%. As to `CC(C)(S)[C@@H](N)C(=O)O`, the inhibition was inactive: -2.59%. As for `CC1=C/C(=N\N=C2\NC(=O)C(CC(=O)Nc3ccccc3F)S2)CC(C)(C)C1` (stereo not drawn), the inhibition was inactive: -8.05%. In the case of `COc1ccc(C(=O)Nc2ncc3c(n2)CC(C)CC3=O)cc1` (stereo not drawn), the inhibition is inactive: -5.13%. The result for `CC(=O)Oc1ccc2c(=O)c(Oc3ccccc3[N+](=O)[O-])coc2c1` reads inactive: 4.63%. Turning to `CC(=O)O[C@H]1CSC[C@H]1NC(=O)c1ccccc1`, the inhibition is inactive: -8.83%. As to `O=C1CCCC(=O)C1=Cc1c[nH]c2ccccc12`, the inhibition was inactive: -0.1%.

Regarding `COC(=O)c1cc(-c2c(C)oc3cc(OC)ccc3c2=O)c(C)o1`, the inhibition is inactive: -1.1%. For `COc1ccc(-c2cc(=O)oc3c(C)c(O)c(CN(C)C)cc23)cc1`, the inhibition is inactive: -2.72%. As to `COC(=O)c1[nH]c2ccccc2c1NC(=O)CN1CCN(C/C=C/c2ccccc2)CC1`, the inhibition is inactive: 12.3%. For the compound `C[C@H](NC(=O)NCCc1ccccc1)C(=O)O`, the inhibition is inactive: -7.43%. As for `O=Cc1ccc(O)c(O)c1`, the inhibition was inactive: 1.17%. As to `CN1CCCN=C1COC(=O)C(O)(c1ccccc1)C1CCCCC1` (stereo not drawn), the inhibition is inactive: -2.75%. `CC(C)(C)C(=O)NCCCNc1ccc([N+](=O)[O-])cc1`: the inhibition was inactive: -4.54%. For the compound `Cc1cc(C)cc(Nc2nc3c([nH]2)c(=O)n(C)c(=O)n3C)c1`, the inhibition was inactive: -3.79%. In the case of `COc1ccc(C(C)=O)c2c1OCCO2`, the inhibition was inactive: -4.08%. `C=CCC1(Cl)C(=O)C(Cl)=C(N2CCOCC2)C1(OC)OC` (stereo not drawn): the inhibition is inactive: -5.35%. Take `CCC(=O)c1ccc(O)cc1`: the inhibition is inactive: -3.72%.

As for `Cn1c(=S)n(C)c2ccccc21`, the inhibition is inactive: -7.95%. As for `CSCCC(NC(C)=O)C(=O)Oc1ccc2c3c(c(=O)oc2c1)CCCC3` (stereo not drawn), the inhibition is inactive: 4.14%. Turning to `CC(C)(Sc1cc(C(C)(C)C)c(O)c(C(C)(C)C)c1)Sc1cc(C(C)(C)C)c(O)c(C(C)(C)C)c1`, the inhibition was inactive: -5.95%. Turning to `CC(=O)O[C@H]1C[C@@]2(C)[C@@H](C[C@@H](O)[C@H]3[C@@]4(C)CC[C@@H](O)[C@@H](C)C4CC[C@@]32C)/C1=C(\CCC=C(C)C)C(=O)O` (stereo partly drawn), the inhibition was inactive: -14.2%. As to `Cc1oc(/C=N/NC(=O)CC2(C)OCCO2)cc1Br`, the inhibition was inactive: -2.12%. In the case of `CCOc1ccc(N2C(=O)CC(NCCNc3ccc([N+](=O)[O-])cn3)C2=O)cc1` (stereo not drawn), the inhibition was inactive: -2.7%.

For the compound `Clc1cc(-c2ccc(/C=N/n3cnnc3)o2)ccc1Br`, the inhibition was inactive: 13.8%.

For the compound `COc1ccc(-c2c(NC(=O)c3ccco3)n(C)c3ccccc3c2=O)cc1`, the inhibition was inactive: -10.8%. Regarding `OC(CCCN1CCC(O)(c2ccc(Cl)cc2)CC1)c1ccc(F)cc1` (stereo not drawn), the inhibition was inactive: -5.52%. In the case of `COc1ccccc1N1CCN(CC(O)COc2cccc3ccccc23)CC1` (stereo not drawn), the inhibition is inactive: -9.03%.

For the compound `COc1ccc(NC(=S)N2CCN(CCN3C(=O)c4cccc5cccc(c45)C3=O)CC2)cc1`, the inhibition was inactive: 4.83%. As for `CN1CCC(=C2c3ccccc3CC(=O)c3sccc32)CC1`, the inhibition was inactive: -0.73%. `COc1cc2c(cc1OC)-c1cc(OCc3ccccc3Cl)nc(=O)n1CC2`: the inhibition was inactive: 15.9%. Take `C[C@]12C=CC(=O)C=C1CCC1C3CC[C@](O)(C(=O)CO)[C@@]3(C)CC3OC312` (stereo partly drawn): the inhibition is inactive: -8.39%. Take `O=C1C=CC(=O)C(C2=C3C(=O)N(CCc4ccccc4)CC(=O)N3CCC2)=C1`: the inhibition is active: 68.9%. As to `CCN1CCn2c3c(c4cc(Cl)ccc42)CCCC31` (stereo not drawn), the inhibition is inactive: -2.44%.

Regarding `COc1cc(OC)c(C(=O)CCCN2CCCC2)c(OC)c1`, the inhibition was inactive: -6.39%. For `CCOC(=O)NN1C(=O)c2ccccc2NC1c1ccc(OC)c(OC)c1` (stereo not drawn), the inhibition is inactive: -3.24%. As to `Cc1ccc2c(CC(=O)O)coc2c1`, the inhibition is inactive: -5.04%. As for `COc1ccccc1-c1c(C(F)(F)F)oc2cc(OC(=O)c3ccc([N+](=O)[O-])cc3)ccc2c1=O`, the inhibition was inactive: 19.7%. Consider `CCOc1ccc(OCCSc2nc3ccccc3[nH]2)cc1`, for which the inhibition was inactive: -1.01%. For `CN1CCc2cccc3c2[C@H]1Cc1ccc(O)c(O)c1-3`, the inhibition was inactive: -0.06%.

On to `CC(C)C1CC(CCNCc2ccc(N(C)C)cc2)(c2ccccc2)CCO1` (stereo not drawn), for which the inhibition was inactive: -14.5%. Consider `CCC(NC(C)C)C(O)c1ccc(O)c(O)c1` (stereo not drawn), for which the inhibition is inactive: 1.91%. The result for `CC1(C)CC(=O)c2cc(O)ccc2O1` reads inactive: -2.35%; that for `c1cnc2c(c1)ccc1cccnc12`, inactive: -52.2%. Regarding `CCn1ccnc1CN(C)Cc1cn(-c2cccc(C)c2)nc1-c1cccc(F)c1`, the inhibition is inactive: 1.49%. Regarding `COc1cc(C(=O)N/C(=C\c2cn(C)c3ccccc23)C(=O)NCCCO)cc(OC)c1OC`, the inhibition was inactive: -0.99%. Take `Cc1ccc2nc(N=C(N)N)nc(C)c2c1`: the inhibition was inactive: -2.93%. With `COc1cc(C2Nc3ccccc3C(=O)N2c2ccccc2)ccc1O` (stereo not drawn), the inhibition was inactive: 2.31%.

Take `Cc1ccc(-c2nn(-c3cccc(F)c3)cc2CN2CCN(c3ccccn3)CC2)o1`: the inhibition is inactive: 7.39%.

On to `Cc1cc(Cl)cc2c1NC(=O)[C@]21[C@@H]2C(=O)N(Cc3ccccc3)C(=O)[C@@H]2[C@@H]2CCCN21`, for which the inhibition was inactive: 5.08%. For the compound `N/C(=N\OC(=O)CCCOc1ccc(Cl)cc1Cl)c1ccccn1`, the inhibition was inactive: -6.95%. Regarding `NC12CC3CC(CC(C3)C1)C2`, the inhibition was inactive: -6.44%. Consider `CC(C)(C)c1csc(N/N=C/c2cccnc2)n1`, for which the inhibition is inactive: -5.97%. The result for `Cc1nc2ccccc2n1CC(=O)NC1CCCC1` reads inactive: -15.2%; that for `O=C(Nc1cccc(Cl)c1)N1CCN2C(=O)c3ccccc3C12c1ccccc1` (stereo not drawn), inactive: 6.94%; that for `O[C@@H](CNC[C@H](O)c1ccccc1)c1ccccc1`, inactive: -1.94%.
